Experimental data: patent US6399606B1, “Neuroprotective agents and methods related thereto” (Nippon Kayaku Co., Ltd., priority 1999, dated 2002)
Some entries share one result that the patent states for a list of compounds.

What was measured:
[1] = test system: Differentiated PC12 (rat pheochromocytoma) cells; assay: PC12 cell protection against taxol assay (LDH release); type: cell-based; settings: 10 μM compound, 19 h pre-treatment, taxol 0.24 mM, LDH 72 hours after taxol, 100% = 30 mM NK5805
Neonatal rat SCG neurons = assay: Rat superior cervical ganglion cell protection against taxol assay (LDH release); type: cell-based; settings: 10 μM compound, 1 mM taxol after 36 hours, LDH 72 hours after taxol, 100% = 30 mM NK5805

Row | SMILES | protection level (% survival by LDH release, relative to 30 mM NK5805) [1] | protection level (% survival by LDH release, relative to 30 mM NK5805) (Neonatal rat SCG neurons)
1 | CCOC(=O)[C@@H]1CCCN1C(=O)[C@H](CSCC(CC(=O)N(C)C)C(=O)c1cccnc1)NC(C)=O (some centres unmarked) [compound 381] | at least 50% | at least 50%
2 | CC(=O)N[C@@H](CSCC(CC(=O)N(C)C)C(=O)c1cccnc1)C(=O)N1CCC[C@H]1C(=O)OC(C)(C)C (some centres unmarked) [compound 382] | at least 50% | at least 50%
3 | CC(=O)N[C@@H](CSCC(CC(=O)N(C)C)C(=O)c1cccnc1)C(=O)N1CCC[C@H]1C(=O)O (some centres unmarked) [compound 383] | at least 50% | at least 50%
4 | CC(=O)NC(CSCC(CC(=O)N(C)C)C(=O)c1cccnc1)C(=O)N1CCCCC1 (centres unmarked) [compound 384] | at least 50% | at least 50%
5 | CC(=O)NC(CSCC(CC(=O)N(C)C)C(=O)c1cccnc1)C(=O)N1CCOCC1 (centres unmarked) [compound 385] | at least 50% | at least 50%
6 | CC(=O)NC(CSCC(CC(=O)N(C)C)C(=O)c1cccnc1)C(=O)NC1CCCCC1 (centres unmarked) [compound 386] | at least 50% | at least 50%
7 | CC(=O)NC(CSCC(CC(=O)N(C)C)C(=O)c1cccnc1)C(=O)NCCCc1ccccc1 (centres unmarked) [compound 387] | at least 50% | at least 50%
8 | CC(=O)NC(CSCC(CC(=O)N(C)C)C(=O)c1cccnc1)C(=O)NCCc1cccnc1 (centres unmarked) [compound 388] | at least 50% | at least 50%
9 | NCC(=O)NCCSCC(CC(=O)N1CCCCC1)C(=O)c1cccnc1 (centres unmarked) [compound 421] | at least 50% | at least 50%
10 | CCOC(=O)C(CSCC(CC(=O)O)C(=O)c1cccnc1)NC(C)=O (centres unmarked) [compound 422] | at least 50% | at least 50%
